Plain letter strings leave the end groups untold.
Test: general procedure: Fmoc solid-phase peptide synthesis; rink amide resin
Settings: whole synthesis, analytical RP-HPLC with UV detection at 220 nm

Sequence | final HPLC purity
TFFYGGSRGKRNNFKTEEYC | >94%
MASMTGGQQMG | >95%
RKKKRRQRRR | 95.1%

Reference: article PMC10267362 (Frontiers in Medicine, 2023)
